Screening data, single-dose tests

Each number is a percent effect as filed. The controls that fix the scale are not given in the record; negative values are as filed. The compounds are a random part of those screened. Two or more numbers in one place are separate tests of the same structure; such repeats can differ widely.

Mtb cholesterol medium: 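Growth of Mycobacterium tuberculosis over 4 days (cholesterol / DPPC medium with tyloxapol); the read-out is not stated. Concentration: 50 µM. Direction is inferred from retests: higher values go with more growth inhibition. About 69,000 compounds were tested under these conditions; 0.54% (about 370) showed 50% or more at least once.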
Mtb glucose medium: 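Whole-cell growth test on Mycobacterium tuberculosis, read after 3 days in glucose-containing 7H9 medium; the read-out is not stated. Tested at 50 µM. The record gives no direction; compounds that gave an IC50 in retests scored well above the rest, so higher reads as more growth inhibition. Size under these conditions: about 69,000 compounds, about 760 of them at 50% or above in at least one test.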

| SMILES | Mtb cholesterol medium | Mtb glucose medium |
|---|---|---|
| `CCC(O)c1nc2c([nH]1)CC(C)(C)CNC2=O` (stereo not given) | -9.361% | -15.73% |
| `Cc1nn(C)c2c(N3CCN(C(=O)c4ccccc4)CC3)ncnc12` | -7.032% | -7.248% |
| `[H][C@]12CC[C@]([H])(CN(Cc3cscn3)C1)N(Cc1cc(CC(C)C)[nH]n1)C2` | 32.08% | 50.1% |
| `CN1C[C@@H](NC(=O)c2cc(F)cc(F)c2)C[C@H]1C(=O)NCc1ncc[nH]1` | -4.361% & 10.87% | 0.8826% & -1.48% |
| `O=C1CCCc2cc(-c3csc(CCN4CCOC4=O)n3)ccc2N1` | -4.607% | 6.219% |
| `O=C(O)c1ccnc(-c2ccnc(COc3ccccc3Cl)n2)c1` | -3.94% | -10.29% |
| `CC(C)COc1ccc(C2SCC(=O)Nc3c2c(=O)[nH]n3C(C)C)cc1` (stereo not given) | -4.237% | 23.39% |
| `CCC1(O)CCCN(c2ncnc3c2c(C)nn3C)C1` (stereo not given) | 3.065% | -18.96% |
| `CCc1cc(NCC(O)CN2CCCCC2)ncn1` (stereo not given) | -4.853% | -5.431% |
| `CCS(=O)(=O)N1CCCc2ccc(NC(=O)Cc3ccc(F)cc3)cc21` | -23.95% | -43.06% |
| `NC(=O)C1CCN(CC(=O)NCCc2c(F)cccc2F)CC1` | -9.026% & -1.057% | -8.661% |
| `CC(O)c1cn(Cc2ccc(F)cc2)nn1` (stereo not given) | -14.56% | 17.73% & -2.699% |
| `NC(=O)Cn1ccnc1C1CCCN(Cc2ccccc2OC(F)F)C1` (stereo not given) | 4.27% | -4.745% & 2.372% |
| `CCCN(c1ccccc1C(=O)O)S(=O)(=O)c1cccc2cccnc12` | 11.6% | -5.756% |
| `Cc1nc(O)cc(CN2CC=C(c3cnn(C(C)(C)C)c3)CC2)n1` | -14.05% | -53.88% |
| `O=C(C1CCCN(C2CCOCC2)C1)N1Cc2ccccc2C1` (stereo not given) | -11.6% | 5.984% |
| `Cc1nc(NC(=O)NCc2cccnc2NCCN(C)C)sc1C` | -17.58% | 0.9513% & -5.913% |
| `O=C(O)C(F)(F)F.O=C(O)C(F)(F)F.[H][C@@]12C[C@@H](OCc3ccccn3)CN1CCN(c1ncccn1)C2` | 18.34% | -5.08% & -2.874% |
| `Cn1ncc2c1C(COCC1CC1)CN(Cc1nccs1)C2` (stereo not given) | 9.985% | -3.58% |
| `CC(=O)c1ccc(C(=O)N2CCC(c3cc(O)nc(C)n3)CC2)s1` | -11.74% | -27.05% |
| `O=C(CC1CCCC1)NCCS(=O)(=O)N1CCN(c2ccccc2)CC1` | 8.42% | 9.441% |
| `CC(c1ccco1)N(C)Cc1cccc(C(=O)Nc2nccn2C)c1` (stereo not given) | 3.48% | 13.39% |
| `O=C(O)C(F)(F)F.[H][C@]12CN(Cc3csc(C)n3)C(=O)[C@@]1([H])CN(c1ncccn1)C2` | 3.786% | 15.65% & 11.97% |
| `NC(=O)NCC(=O)N1CCCC(OCc2cccnc2)C1` (stereo not given) | -74.27% | -59.09% |
| `C=C(C)CN1CCN(Cc2nccn2C)C(C)C1` (stereo not given) | 3.663% | -16.28% |
| `O=c1cc(N2CCCCC2)cnn1CCCn1cccn1` | 1.259% | 3.938% |
| `CC(Oc1ccccc1C(F)(F)F)C(=O)NS(=O)(=O)C(C)C` (stereo not given) | 12.99% & 5.479% | 6.989% |
| `O=C(NCc1cccs1)c1[nH]nc2c1CS(=O)(=O)CC2` | 3.922% | -13.38% |
| `CCC1CCCCCN1C(=O)c1coc(S(=O)(=O)N(C)C)c1` (stereo not given) | -3.251% | 10.76% & 2.213% |
| `COc1ncc(NS(=O)(=O)c2ccc(F)cc2F)cn1` | -15.58% | -8.221% |
| `CC(c1ccccc1)n1c(SCC(=O)O)nnc1-c1ccn[nH]1` (stereo not given) | -6.233% | 0.001674% & 14.27% |
| `[H][C@@]12CCN(c3ncccn3)[C@]1([H])CC[C@@H](C(=O)N1CCCO1)O2` | 3.089% | 10.44% & -1.887% |
| `COc1ncc(C)cc1NC(=O)COCC(F)(F)F` | -8.794% | -10.79% & 0.2054% |
| `[H][C@]12CC[C@]([H])(CN(c3cnccn3)C1)N(C(=O)c1csc(C)c1CC)C2` | -9.642% & -8.527% | 18.45% |
| `CC(C)c1nc(N2CCN3CCCC3C2)c2cnn(C)c2n1` (stereo not given) | 28.67% | 25.53% |
| `O=C1CC(c2ccncc2)C2(CCN(Cc3nccs3)CC2)N1` (stereo not given) | -2.159% | -17.54% |
| `COCCNC(=O)c1cc(C(C)C)nc(N2CCCCC2)n1` | -10.48% | 34.87% |
| `Cc1occc1C(=O)N1CCc2c(COCC3CC3)cncc2C1` | -22.66% | -10.25% |
| `c1ccc(-c2noc(CNC3CCCN(c4cccnn4)C3)n2)nc1` (stereo not given) | -11.71% | 8.327% & 14.73% |
| `[H][C@@]12OCCN(C(=O)c3nn(C)c4ccccc34)[C@@]1([H])CC[C@H]2OC(C)C` | -8.739% | -11.51% |
| `Cc1n[nH]c(C2CN(Cc3csc(C4CC4)n3)CCO2)n1` (stereo not given) | 14.3% | 29.31% |
| `CC(C)c1nc(CN(C)C(=O)C(O)c2ccc(Cl)cc2)cs1` (stereo not given) | 0.4823% | 5.304% |
| `COc1cc(C)c(C(C)NC(=O)c2cccnc2N(C)C)cc1OC` (stereo not given) | -16.11% | -2.512% |
| `CC(C)c1ccc(CS(=O)(=O)CC(=O)NCc2ccccc2F)cc1` | -1.154% | 36.43% |
| `O=C(O)C(F)(F)F.[H][C@@]12CCCO[C@]1([H])[C@H](NC(=O)c1cnoc1C)CN(CC1CC1)C2` | 11.59% | -2.68% |
| `CCCc1nnc(SCc2cc(=O)n3c4c(sc3n2)CCCC4)[nH]1` | 21.62% | 27.26% |
| `c1ccc(-c2nc(CN3CCOC(Cn4cccn4)C3)no2)cc1` (stereo not given) | 15.83% | 21.01% |
| `[H][C@]12CC[C@]([H])(CC(=O)NC1)N2C1CCSCC1` | -3.961% | -14.31% |
| `CCc1nc(CNc2ccc(F)cc2I)no1` | 45.24% | 61.19% |
| `CCC(=O)N1Cc2nccn2CC(CN(C)Cc2cccnc2)C1.O=C(O)C(F)(F)F.O=C(O)C(F)(F)F` (stereo not given) | -13.19% | -2.557% |
| `Cn1ncc2c(N3CC(N4CCCCC4)C3)nc(-c3ccncc3)nc21` | -26.35% | -17.19% |
| `CCCc1nnc(N2CCN(c3cccc(OC)c3)C(=O)C2)o1` | 6.66% & -22.87% | 15.77% |
| `CN(C)CC1CSCCCN1S(=O)(=O)Cc1ccc(C(F)(F)F)cc1` (stereo not given) | -0.03242% | 2.79% & -6.66% |
| `O=C(CC1=CCCCC1)Nc1ccc(CN2C(=O)CCC2=O)cc1` | -0.4421% & -5.188% | 17.5% & 1.54% |
| `COCCN(C)C[C@@H]1CN(C(=O)NC2CCCCC2)C[C@@H]1CO` | 14.48% | 0.5949% |
| `Cc1ccccc1OCCCC(=O)NC(C)c1nnc2n1CCC2` (stereo not given) | -44.84% | -12% |
| `Cc1nc(C(=O)N(Cc2c(C)nn(C)c2C)C(C)C)cs1` | -8.678% | -2.538% & 5.499% |
| `COc1ccc(F)c(CN2CCCC(O)(CNCc3ncc[nH]3)C2=O)c1` (stereo not given) | -9.909% | 18.02% |
| `O=C1CN(C(=O)C2CN(c3cccc(F)c3)CCO2)CCN1` (stereo not given) | 9.482% & -7.102% | -25.59% |
| `CCC(C(=O)N1CCS(=O)(=O)CC1)n1cccn1` (stereo not given) | 16.88% | -12.07% |
| `Cc1csc(CN(CC2CCCO2)C(=O)c2cccnc2C)n1` (stereo not given) | -4.854% | -15.94% |
| `CC(C)(C)CN1CC(O)CN(C(=O)c2cccc(C(F)(F)F)c2)CC1=O` (stereo not given) | 9.569% | 9.68% |
| `CNC(=O)c1coc(-c2csc(C)n2)c1` | 5.925% | 2.421% & 16.98% |
| `[H][C@@]12CCC(=O)N(CCCOC)[C@]1([H])CCN(c1ccc(C(N)=O)cn1)C2` | -8.58% | -8.604% & -18.63% |
| `Cc1ccc(C(NCC(=O)N2CCNC(=O)C2)c2ccccc2)cc1` (stereo not given) | -19.93% | 4.735% |
| `O=C(CCc1ccc(Cl)s1)NCc1nnc2n1CCCCC2` | -10.79% | -7.013% |
| `CC(C)C(C(=O)N1CCC(Nc2cccnn2)CC1)n1cncn1` (stereo not given) | 0.9791% | 15.72% |
| `[H][C@]12CCCCN1CCC[C@@]2(O)Cn1cnc2cc(OC)ccc21` | 11.31% | 27.75% & -2.124% |
| `COCCNC(=O)c1cccnc1Oc1ccc(Cl)cc1` | -3.379% | -8.052% |
| `Cc1noc(C)c1CN(C)C(=O)C1CCCCN1S(C)(=O)=O` (stereo not given) | -19.63% | 3.962% & -19.8% |
| `CN(Cc1ccncc1)C(=O)Nc1cnn(CC(N)=O)c1` | 4.826% | -4.883% & 22.31% |
| `Cc1cn2c(n1)CCC(NC(=O)c1ccc(S(C)(=O)=O)o1)C2` (stereo not given) | 5.07% | -5.752% |
| `CCc1nnc2n1CCN(C(=O)C(C)COCc1ccccc1)C2` (stereo not given) | -2.49% | 10.78% |
| `Cc1nc(C2CCCN(C(=O)c3ccc(N4CCCC4)nn3)C2)no1` (stereo not given) | 5.346% | 58.34% |
| `CN(c1ncccc1CNCc1ncc[nH]1)C1CCCCC1` | -5.442% | 14.23% |
| `O=C(Cc1ccon1)N1CCN(c2ccc(F)cc2Cl)CC1` | 19.14% | 8.419% |
| `Cn1cc(CCCN2CCN(Cc3cccc(O)c3)CC2)cn1` | 7.694% | -4.027% |

5 of the entries, repeated:

COc1cc(C)c(C(C)NC(=O)c2cccnc2N(C)C)cc1OC (stereo not given) read Mtb cholesterol medium: -16.11%; Mtb glucose medium: -2.512%.
O=C(Cc1ccon1)N1CCN(c2ccc(F)cc2Cl)CC1 read Mtb cholesterol medium: 19.14%; Mtb glucose medium: 8.419%.
Cc1nc(O)cc(CN2CC=C(c3cnn(C(C)(C)C)c3)CC2)n1 read Mtb cholesterol medium: -14.05%; Mtb glucose medium: -53.88%.
O=C(O)C(F)(F)F.[H][C@@]12CCCO[C@]1([H])[C@H](NC(=O)c1cnoc1C)CN(CC1CC1)C2 read Mtb cholesterol medium: 11.59%; Mtb glucose medium: -2.68%.
Cc1ccccc1OCCCC(=O)NC(C)c1nnc2n1CCC2 (stereo not given) read Mtb cholesterol medium: -44.84%; Mtb glucose medium: -12%.

Measurements from “University of Dundee, Small-Polar-MMV Screening Library” (2021), ChEMBL document CHEMBL3988442.